Experimental data: PubChem BioAssay AID1259329 (Drosophila RNAi Screening Center, 2017)
Shown is a random part of 418 reagents. In the full data, 20 (4.8%) got an active call. 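All active calls have high ATP; no reagent fell below -1.5.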 The numbers tell different reagents against one gene apart. Reagent sequences are not shown. Not stated in the record: the amount of reagent, the dose of the treatment.

Aim: 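Total ATP after each knock-down with water instead of metal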
System: Drosophila S2R+ cells
Reagent: long dsRNA against Drosophila genes
Duration: 5 days (4 days knock-down, then 1 day after water)
Challenge: water added as vehicle control, no metal, one day before read-out
Read-out: 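Luciferase-based total ATP per well, read one day after adding water without metal following 4 days knock-down, given as z-score averaged across duplicate plates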
Reading the numbers: mean ATP z-score: higher = more total ATP, likely more viable cells
Active means: 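Active means the absolute value of the z-score is over 1.5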

no.	predicted target	reagent	mean ATP z-score	Outcome
1	AP-1sigma (Adaptor Protein complex 1, sigma subunit)	1	-0.648	inactive
2	AP-1sigma (Adaptor Protein complex 1, sigma subunit)	2	-0.511	inactive
3	CG13084	1	-0.566	inactive
4	Gga	1	-0.78	inactive
5	Gga	2	0.828	inactive
6	Vha16-1 (Vacuolar H[+] ATPase 16kD subunit 1)	1	0.487	inactive
7	Vha16-1 (Vacuolar H[+] ATPase 16kD subunit 1)	2	-0.549	inactive
8	Vha16-1 (Vacuolar H[+] ATPase 16kD subunit 1)	3	-0.63	inactive
9	VhaAC39-1 (Vacuolar H[+] ATPase AC39 subunit 1)	1	-0.864	inactive
10	VhaAC39-1 (Vacuolar H[+] ATPase AC39 subunit 1)	2	-0.171	inactive
11	VhaAC39-1 (Vacuolar H[+] ATPase AC39 subunit 1)	3	-0.395	inactive
12	ry (rosy)	1	0.136	inactive
13	ry (rosy)	2	-0.381	inactive
14	ry (rosy)	3	-0.449	inactive
15	Npc2b (Niemann-Pick type C-2b)	1	0.454	inactive

Copied from the listing (3 entries):
no.	predicted target	reagent	mean ATP z-score	Outcome
4	Gga	1	-0.78	inactive
5	Gga	2	0.828	inactive
6	Vha16-1 (Vacuolar H[+] ATPase 16kD subunit 1)	1	0.487	inactive

The results go on:
no.	predicted target	reagent	mean ATP z-score	Outcome
16	Vha100-4 (Vacuolar H[+] ATPase 100kD subunit 4)	1	-0.025	inactive
17	Vha100-4 (Vacuolar H[+] ATPase 100kD subunit 4)	2	1.1	inactive
18	beta-Man (beta-Mannosidase)	1	1.08	inactive
19	beta-Man (beta-Mannosidase)	2	-0.149	inactive
20	PMP34 (Peroxisomal Membrane Protein 34)	1	0.136	inactive
21	PMP34 (Peroxisomal Membrane Protein 34)	2	0.0375	inactive
22	Ppt1 (Palmitoyl-protein thioesterase 1)	1	0.464	inactive
23	Gba1b (Glucocerebrosidase 1b)	1	-0.429	inactive
24	CG17544	1	-0.919	inactive
25	CG17544	2	-0.901	inactive
26	Mpv17 (Mitochondrial inner membrane protein MPV17)	1	-0.372	inactive
27	Mpv17 (Mitochondrial inner membrane protein MPV17)	2	0.188	inactive
28	CG14767	1	0.946	inactive
29	CG14767	2	-0.357	inactive
30	Pex16 (Peroxin 16)	1	-0.103	inactive
31	Npc2g (Niemann-Pick type C-2g)	1	-0.33	inactive
